# The other results are listed elsewhere or left out. Further columns of the screen follow, without active or inactive calls. Most of these compounds were active or inconclusive in the main read-out, so they are no random draw. Words in brackets tell the shape of the fitted curve; partial curves, single points and poor fits give uncertain potencies.
# Test: qHTS Assay to Find Inhibitors of Chronic Active B-Cell Receptor Signaling
# Settings: ABC-DLBCL IkBa-CBG/CBR reporter, luminescence ratio (green luciferase fused to IkBa over red control in TMD8 lymphoma cells), 4 h
# In short: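 TMD8 human ABC-DLBCL cells with doxycycline-inducible IκBα–green luciferase fusion and unfused red luciferase, in 0.5% FBS medium; compounds up to 46 uM, 4 h at 37C. Green/red luminescence ratio, filter-overlap corrected, fitted to concentration-response curves.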
# [1] = measured here: CBR red luminescence, cell number
# [2] = measured here: IkBa-CBG green luminescence
SMILES,AC50 [1],AC50 [2]
Cc1nn(-c2ccc(C(F)(F)F)cn2)c(C)c1Oc1ccccc1O,"29.1 µM [falling, single point]",–
CCOC(=O)C(=O)/C(C#N)=C/Nc1ccc(Cl)cc1,"4.61 µM [falling, partial curve, poor fit]",–
CN(C)c1ccc(C(=O)OCC#CCSc2nnc(-c3cccc4ccccc34)o2)cc1,"4.11 µM [rising, single point]",–
COC(=O)c1ccc(COc2cccc3c2CCN(Cc2ccccc2)C3=O)o1,"14.6 µM [falling, single point]",–
Cc1ccc(-n2cc(C(=O)O)c(=O)cc2C)c(C)c1,"35.5 µM [rising, single point]",–
CCOc1ccc(OCCC(=O)OCC(=O)Nc2cc(OCC)c(N3CCOCC3)cc2OCC)cc1,"14.6 µM [falling, partial curve]","9.2 µM [rising, partial curve, poor fit]"
CCOc1cccc(/C=N/NC(=S)Nc2ccccc2[N+](=O)[O-])c1O,"2.51 µM [falling, single point]",–
Cc1c(C(=O)OCC(C)C)[nH]c2c1C(=O)CC(c1ccco1)C2 (configuration not stated),"2.31 µM [rising, full curve]","2.59 µM [falling, partial curve, poor fit]"
Cc1cc2n(n1)CCCN2C(=O)Nc1ccc(Cl)cc1,"5.62 µM [rising, partial curve, poor fit]",–
O=C(/C=C/c1c(Cl)cccc1Cl)N1CCOCC1,"35.5 µM [rising, single point]",–
Cc1nc2ccc(C(=O)N3CCCC(CO)(Cc4ccc(F)cc4F)C3)cc2nc1C (configuration not stated),"10 µM [falling, partial curve, poor fit]",–
CN(CC(=O)Nc1ccc(F)cc1)C(=O)c1cccc(S(=O)(=O)N2CCN(c3ccc(F)cc3)CC2)c1,"16.4 µM [falling, single point]",–
COc1ccc(-n2cc(CNCCCn3ccnc3)c(-c3cccc(F)c3)n2)cc1,"12.6 µM [falling, partial curve, poor fit]",–
O=C(NN=Cc1c(O)ccc2ccccc12)c1ccc2c(c1)OCO2,"3.66 µM [falling, full curve, poor fit]",–
O=C(COC(=O)c1ccc(O)cc1O)Nc1cc(-c2ccccc2)nn1-c1ccccc1,"25.9 µM [falling, partial curve, poor fit]",–
O=C(Nc1ccc(Cl)cc1)N[C@@H]1c2c(ccc3ccccc23)OC[C@@H]1CO,"5.62 µM [rising, single point]",–
COc1ccc(OC)c(NC(=O)CC2(CC(=O)O)CCCC2)c1,"20 µM [falling, partial curve, poor fit]",–
CCn1c(N)c(C(=O)NC2CCCCC2)sc1=S,"14.6 µM [falling, partial curve]",–
COc1ccccc1N1CCN(S(=O)(=O)c2cc(C)sc2C)CC1,"0.82 µM [rising, partial curve, poor fit]",–
COC(=O)C1CN(C(=O)COc2ccc(Cl)c(C)c2)c2ccccc2O1 (configuration not stated),"3.16 µM [falling, full curve]",–

# One compound at a time, from the list above. Values in the order: AC50 [1]	AC50 [2]
# `Cc1cc2n(n1)CCCN2C(=O)Nc1ccc(Cl)cc1` in the list: 5.62 µM [rising, partial curve, poor fit]	–
# `CN(CC(=O)Nc1ccc(F)cc1)C(=O)c1cccc(S(=O)(=O)N2CCN(c3ccc(F)cc3)CC2)c1` in the list: 16.4 µM [falling, single point]	–

# Further structures.

SMILES,AC50 [1],AC50 [2]
CC(=O)OCCc1c(C)nc2nc[nH]n2c1=O,"0.92 µM [falling, full curve, poor fit]",–
N#CCSc1nc(Nc2ccc3c(c2)OCO3)c2ccccc2n1,"15.8 µM [falling, single point]",–
O=c1oc2c(CN3CCOCC3)c(O)ccc2c2c1CCC2,"35.5 µM [rising, partial curve, poor fit]",–
COc1ccc(N(CC(O)Cn2c3ccccc3c3ccccc32)S(=O)(=O)c2ccccc2)cc1 (configuration not stated),"7.08 µM [falling, partial curve, poor fit]",–
C[C@H](CO)N1C[C@H](C)[C@@H](CN(C)CC2CCCCC2)Oc2c(NC(=O)Cc3ccccc3)cccc2C1=O,"25.9 µM [falling, single point]",–
O=C(CSc1nc2ncccc2[nH]1)Nc1ccc2c(c1)OCO2,"35.5 µM [falling, single point]",–
CCOc1cc(/C=C/C(=O)OCC(=O)NC2CCS(=O)(=O)C2)ccc1OCc1ccccc1 (configuration not stated),"12.6 µM [rising, partial curve, poor fit]",–
Cc1c(C(=O)N2CCOCC2)c(S(=O)(=O)Nc2ccccc2)c(C)n1C,"0.794 µM [falling, partial curve, poor fit]",–
CNC(=O)CCCc1nc(-c2ccccc2Cl)no1,"0.184 µM [rising, full curve, poor fit]",–
COc1cc(C=C2C(=O)c3ccccc3C2=O)cc(OC)c1OC,"5.62 µM [rising, single point]",–
CC(=O)C1CCC2C3CCC4=CC(=O)CC[C@]4(C)[C@@]3(F)C(O)C[C@]12C (some centres not stated),"0.355 µM [rising, full curve, poor fit]",–
CCCCn1nc(C(=O)NCC2COc3ccccc3O2)c2ccccc2c1=O (configuration not stated),"18.4 µM [falling, single point]",–
O=c1cc2c(nn1Cc1cccc(Cl)c1)-c1ccccc1CC2,"14.6 µM [falling, single point]",–
COc1ccccc1/C=C/C(=O)OCC(=O)c1c[nH]c2ccccc12,"20.6 µM [falling, single point]",–
CCCOc1cccc(CN2CCCCC2c2cccnc2)c1 (configuration not stated),"2.91 µM [rising, partial curve, poor fit]",–
CN(CC/C=C1/c2ccccc2CSc2ccccc21)CCCO,"7.31 µM [falling, partial curve, poor fit]",–
Cc1ccsc1C(=O)NNC(=O)Nc1ccc(Cl)c(Cl)c1,"20 µM [falling, single point]",–
Cc1c(C(=O)NCc2ccccc2)oc2ccc(S(=O)(=O)N3CCCC3)cc12,"3.55 µM [rising, full curve, poor fit]",–
O=[N+]([O-])c1ccc2c(c1)C(N1CCOCC1)/C(=C/COc1ccc(F)cc1)O2 (configuration not stated),"29.1 µM [falling, single point]",–
O=C(COC(=O)c1ccccc1NC(=O)c1ccccc1)c1ccc([N+](=O)[O-])cc1,"2.91 µM [falling, full curve]",–

# — PubChem BioAssay AID493014 (National Center for Advancing Translational Sciences (NCATS), 2011)
